For this data set, the target named is chLGP2 (chicken) (UniProt G0YYQ5). Briefly: fluorescence anisotropy. The conditions noted are these: Fluorescence anisotropy: 5'-FAM 12-mer annealed to unlabeled complement, protein titrated, ex 495 / em 515 nm, fit with Hill coefficient (n=1 for RIG-I); recombinant protein; residues 1-674; protein details: SUMO fusion; label: 5'-FAM on one strand. (Polarisation of emitted light reports the rotation of a fluorescent probe.)

By UniProt entry, the sequences of proteins in these tests, tags left out.
UniProt G0YYQ5, entry or part of it: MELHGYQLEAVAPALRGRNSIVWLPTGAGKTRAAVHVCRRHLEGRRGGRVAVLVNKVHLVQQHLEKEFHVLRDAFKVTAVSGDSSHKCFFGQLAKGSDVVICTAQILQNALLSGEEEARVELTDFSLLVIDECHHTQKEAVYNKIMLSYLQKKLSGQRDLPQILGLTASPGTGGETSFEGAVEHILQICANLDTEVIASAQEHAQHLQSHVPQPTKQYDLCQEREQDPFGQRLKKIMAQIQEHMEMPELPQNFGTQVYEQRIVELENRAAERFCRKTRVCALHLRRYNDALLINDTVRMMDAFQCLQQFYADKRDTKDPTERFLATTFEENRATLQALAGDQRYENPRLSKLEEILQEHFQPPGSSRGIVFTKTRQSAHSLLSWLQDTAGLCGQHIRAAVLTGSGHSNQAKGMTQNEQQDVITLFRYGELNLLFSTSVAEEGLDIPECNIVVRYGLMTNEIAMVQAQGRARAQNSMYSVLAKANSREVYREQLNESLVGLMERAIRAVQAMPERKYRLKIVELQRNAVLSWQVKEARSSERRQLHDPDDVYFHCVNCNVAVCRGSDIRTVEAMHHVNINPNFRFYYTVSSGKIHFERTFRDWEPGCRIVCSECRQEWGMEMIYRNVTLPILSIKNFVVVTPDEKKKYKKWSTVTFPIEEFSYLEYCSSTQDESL

Construct, isoform or probe ends are uncertain for at least one entry. Whether high values mean tight binding is not given here for every scale.

Take “GGCCAGUGCGAA / CGCACUGGCCAA [3' overhang dsRNA (anisotropy)]”: the binding signal (fold lower affinity than blunt end) stood at 2.

The record behind these values is PMC4885022, “Structural Analysis of dsRNA Binding to Anti-viral Pattern Recognition Receptors LGP2 and MDA5” (Molecular Cell, 2016).
